From US20050281815A1
No constants are given. Whether binding was seen depends on the method and setting. Some binding calls cover weakened binding; strength is not graded here. Sequences can lack the tags named with a protein.

By UniProt entry, the sequences of proteins in these tests, tags left out. Residues count along the entry.
UniProt P29965, residues 116-261: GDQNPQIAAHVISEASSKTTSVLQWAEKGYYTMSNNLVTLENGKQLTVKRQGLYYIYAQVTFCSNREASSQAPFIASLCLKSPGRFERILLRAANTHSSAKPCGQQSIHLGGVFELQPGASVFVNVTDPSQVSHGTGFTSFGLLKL

Legend:
[1] = molecular target: rsCD154 captured on the Biacore chip (UniProt P29965); assay: Biacore, rsCD154 captured by anti CD154 antibody on CM5 chip
[2] = molecular target: CD154 (ALX-522-015), immobilized on ELISA plates (UniProt P29965); assay: ELISA, CD154 immobilized on the plate, detection with anti-CD40 antibody
[3] = molecular target: rsCD154 captured on the Biacore chip (UniProt P29965); assay: Biacore, rsCD154 captured by anti CD154 antibody on CM5 chip, analytes 20-400 nM

binding [1]: binds | binding [2]: binds | binding [3]: binds
B1: CD40-skipping 6 protein fused to the Fc chain of Immunoglobulin IgG1 (CD40-Skip6-Fc) (Fc fusion, not shown: a dimerising Fc or GST)
chain: EPPTACREKQYLINSQCCSLCQPGQKLVSDCTEFTETECLPCGESEFLDTWNRETHCHQHKYCDPNLGLRVQQKGTSETDTICTCEEGWHCTSEACESCVLHRSCSPGFGVKQIATGVSDTICEPCPVGFFSNVSSAFEKCHPWTRSPGSAESPGGDPHHLRDPVCHPLGAGLYQKGGQEANQ
